Three substances from paper doi:10.1101/2025.11.01.685922 can be followed below.

Protein sequences, listed by entry. Tags and fused reporters are not part of them. Residues count along the entry.
UniProt Q9DBC7: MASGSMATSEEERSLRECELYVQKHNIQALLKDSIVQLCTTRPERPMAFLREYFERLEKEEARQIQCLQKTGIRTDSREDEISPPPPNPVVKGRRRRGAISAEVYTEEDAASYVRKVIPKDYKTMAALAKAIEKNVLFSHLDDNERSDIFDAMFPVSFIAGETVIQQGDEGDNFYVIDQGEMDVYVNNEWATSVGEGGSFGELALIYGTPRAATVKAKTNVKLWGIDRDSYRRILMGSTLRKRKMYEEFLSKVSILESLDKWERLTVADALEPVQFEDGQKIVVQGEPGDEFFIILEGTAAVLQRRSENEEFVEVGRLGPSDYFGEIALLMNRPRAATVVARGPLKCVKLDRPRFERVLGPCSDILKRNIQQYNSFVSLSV
UniProt P70336: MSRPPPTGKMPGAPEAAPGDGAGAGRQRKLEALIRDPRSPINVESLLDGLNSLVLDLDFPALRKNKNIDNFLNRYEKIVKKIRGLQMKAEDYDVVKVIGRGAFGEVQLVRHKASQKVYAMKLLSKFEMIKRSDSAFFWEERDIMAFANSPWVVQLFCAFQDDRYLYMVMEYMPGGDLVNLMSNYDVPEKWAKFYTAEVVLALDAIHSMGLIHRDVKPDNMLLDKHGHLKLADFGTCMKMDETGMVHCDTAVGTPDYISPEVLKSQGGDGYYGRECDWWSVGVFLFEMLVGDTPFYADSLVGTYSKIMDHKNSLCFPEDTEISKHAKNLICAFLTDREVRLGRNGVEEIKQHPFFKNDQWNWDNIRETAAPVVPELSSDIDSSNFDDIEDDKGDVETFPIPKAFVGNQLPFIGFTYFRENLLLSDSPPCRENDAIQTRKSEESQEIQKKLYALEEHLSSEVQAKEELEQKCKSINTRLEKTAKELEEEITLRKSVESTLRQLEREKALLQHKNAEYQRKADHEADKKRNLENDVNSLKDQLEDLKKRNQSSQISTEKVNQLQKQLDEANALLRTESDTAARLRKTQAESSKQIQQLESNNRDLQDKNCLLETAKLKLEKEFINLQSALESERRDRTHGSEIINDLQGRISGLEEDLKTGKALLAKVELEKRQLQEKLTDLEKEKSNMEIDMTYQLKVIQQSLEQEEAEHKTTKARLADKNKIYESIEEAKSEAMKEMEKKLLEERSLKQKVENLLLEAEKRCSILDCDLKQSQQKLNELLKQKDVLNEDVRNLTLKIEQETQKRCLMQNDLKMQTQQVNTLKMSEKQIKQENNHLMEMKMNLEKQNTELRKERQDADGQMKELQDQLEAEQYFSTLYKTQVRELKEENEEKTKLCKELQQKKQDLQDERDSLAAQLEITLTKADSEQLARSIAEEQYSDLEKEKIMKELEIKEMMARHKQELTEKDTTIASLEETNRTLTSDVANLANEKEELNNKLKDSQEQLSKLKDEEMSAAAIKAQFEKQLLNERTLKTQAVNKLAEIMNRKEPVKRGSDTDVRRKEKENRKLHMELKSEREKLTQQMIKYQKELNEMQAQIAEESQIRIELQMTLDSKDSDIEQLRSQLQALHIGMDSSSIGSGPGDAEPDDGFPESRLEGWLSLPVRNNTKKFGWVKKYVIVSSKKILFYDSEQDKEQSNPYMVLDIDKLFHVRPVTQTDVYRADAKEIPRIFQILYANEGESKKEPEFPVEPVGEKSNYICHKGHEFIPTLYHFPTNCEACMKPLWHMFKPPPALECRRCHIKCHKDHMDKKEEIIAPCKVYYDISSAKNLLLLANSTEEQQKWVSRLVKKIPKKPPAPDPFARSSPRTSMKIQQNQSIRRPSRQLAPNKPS
UniProt P70302, residues 23-685: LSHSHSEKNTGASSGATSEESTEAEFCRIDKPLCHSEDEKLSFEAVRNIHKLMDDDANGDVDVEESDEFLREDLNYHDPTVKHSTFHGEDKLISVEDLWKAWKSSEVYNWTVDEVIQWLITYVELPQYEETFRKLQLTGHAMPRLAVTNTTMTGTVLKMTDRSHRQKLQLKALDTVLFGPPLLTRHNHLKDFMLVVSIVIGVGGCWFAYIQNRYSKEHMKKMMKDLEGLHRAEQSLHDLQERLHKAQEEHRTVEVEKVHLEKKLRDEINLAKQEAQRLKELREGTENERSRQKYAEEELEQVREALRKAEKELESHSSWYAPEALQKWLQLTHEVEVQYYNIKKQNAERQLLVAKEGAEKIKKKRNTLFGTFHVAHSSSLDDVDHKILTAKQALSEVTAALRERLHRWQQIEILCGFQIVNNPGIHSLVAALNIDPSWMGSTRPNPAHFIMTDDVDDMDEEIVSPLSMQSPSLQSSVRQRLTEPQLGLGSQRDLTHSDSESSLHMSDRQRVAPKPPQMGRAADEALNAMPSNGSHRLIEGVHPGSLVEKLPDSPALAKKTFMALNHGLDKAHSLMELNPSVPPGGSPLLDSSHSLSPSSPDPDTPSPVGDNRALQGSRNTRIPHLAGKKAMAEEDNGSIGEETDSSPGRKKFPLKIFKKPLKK

Common to all, as to experiment: proximity labelling
For experiment [1], the target named is T1, FAM134C fused to TurboID-V5 (FAM134C-TID-V5 and TID-V5-FAM134C) (UniProt Q9CQV4).
T1 sequence: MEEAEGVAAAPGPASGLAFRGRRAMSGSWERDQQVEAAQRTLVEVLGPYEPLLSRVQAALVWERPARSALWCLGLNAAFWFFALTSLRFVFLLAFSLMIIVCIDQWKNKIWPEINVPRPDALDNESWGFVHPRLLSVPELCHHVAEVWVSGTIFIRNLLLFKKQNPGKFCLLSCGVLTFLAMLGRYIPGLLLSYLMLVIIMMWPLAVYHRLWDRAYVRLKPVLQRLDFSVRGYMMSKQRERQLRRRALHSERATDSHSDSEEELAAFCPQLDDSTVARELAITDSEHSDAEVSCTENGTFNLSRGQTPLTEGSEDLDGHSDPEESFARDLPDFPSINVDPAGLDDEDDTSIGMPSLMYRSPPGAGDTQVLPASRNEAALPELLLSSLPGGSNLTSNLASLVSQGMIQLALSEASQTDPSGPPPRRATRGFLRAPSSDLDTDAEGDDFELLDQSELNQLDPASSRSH

Experiment [2] addresses T2, FAM134B fused to TurboID-V5 (FAM134B-TID-V5 and TID-V5-FAM134B) (mouse) (UniProt Q8VE91).
T2 sequence: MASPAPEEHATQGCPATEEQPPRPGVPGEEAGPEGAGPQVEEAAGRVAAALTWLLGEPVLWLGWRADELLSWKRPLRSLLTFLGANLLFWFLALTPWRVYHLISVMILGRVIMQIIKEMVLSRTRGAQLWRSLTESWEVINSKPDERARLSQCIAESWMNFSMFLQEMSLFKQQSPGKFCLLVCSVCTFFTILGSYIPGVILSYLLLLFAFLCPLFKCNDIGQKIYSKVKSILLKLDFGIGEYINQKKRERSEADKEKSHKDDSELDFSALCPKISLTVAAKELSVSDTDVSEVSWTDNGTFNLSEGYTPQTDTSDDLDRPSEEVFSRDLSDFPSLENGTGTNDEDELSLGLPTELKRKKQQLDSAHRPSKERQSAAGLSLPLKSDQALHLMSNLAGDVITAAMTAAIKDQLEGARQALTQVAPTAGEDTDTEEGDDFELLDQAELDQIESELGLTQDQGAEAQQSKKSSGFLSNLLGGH

In experiment [3] the target is T1, FAM134C fused to TurboID-V5 (FAM134C-TID-V5 and TID-V5-FAM134C). The source holds these as a separate data set.
For experiment [4], the target named is T2, FAM134B fused to TurboID-V5 (FAM134B-TID-V5 and TID-V5-FAM134B) (mouse). This is another data set of the same source.

Where two headings read alike, the source gives them in different places. No constants are given. Whether binding was seen depends on the method and setting. In cells and extracts the contact can be indirect. Here binding means that the protein was enriched with, or labelled near, the bait; the list need not be complete. Tags and fused reporters may be left off the sequences shown.

As to “PRKAR1A, endogenous in PDAC cells (from UniProt Q9DBC7 1-381)”, the binding entry in experiment [1], in experiment [2], in experiment [3] and in experiment [4] was “binds” throughout.

With “ROCK2, endogenous in PDAC cells (from UniProt P70336 1-1388) (enzyme)”, the binding result in experiment [2] is recorded as “binds”.

With “STIM1, endogenous in PDAC cells (from UniProt P70302 23-685)”, the binding result in experiment [2] was “binds”.
